{"source": "paper PMC8533794", "about": "“Selection of a Nuclease-Resistant RNA Aptamer Targeting CD19”", "key": {"[1]": {"target": "T1, CD19 on transfected COS-7 cells (human) (UniProt P15391)", "T1 sequence": "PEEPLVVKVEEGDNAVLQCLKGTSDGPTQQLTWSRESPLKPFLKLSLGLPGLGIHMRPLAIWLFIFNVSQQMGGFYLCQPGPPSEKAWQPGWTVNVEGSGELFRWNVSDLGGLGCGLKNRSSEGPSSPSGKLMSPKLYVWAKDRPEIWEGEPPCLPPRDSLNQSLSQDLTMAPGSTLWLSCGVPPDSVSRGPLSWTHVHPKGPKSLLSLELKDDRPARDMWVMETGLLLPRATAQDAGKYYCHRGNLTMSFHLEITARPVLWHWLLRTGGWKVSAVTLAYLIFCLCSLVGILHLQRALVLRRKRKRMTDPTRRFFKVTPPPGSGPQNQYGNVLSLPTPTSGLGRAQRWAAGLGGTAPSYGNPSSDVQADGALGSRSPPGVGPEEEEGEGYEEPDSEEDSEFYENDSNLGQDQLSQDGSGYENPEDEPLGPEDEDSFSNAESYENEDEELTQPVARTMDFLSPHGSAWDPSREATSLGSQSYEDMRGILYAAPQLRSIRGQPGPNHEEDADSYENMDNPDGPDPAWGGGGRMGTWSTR", "assay": "cell binding RT-qPCR", "conditions": "200 nM aptamer, poly(I); 2'-fluoro pyrimidines; cell binding: serum-free medium, 37 C, 30 min, with poly(I) 0.1 ug/uL (qPCR) or tRNA 0.4 ug/uL plus 100 nM Ctrl Apt (FACS); protein on the cell surface"}, "[2]": {"target": "T2, endogenous CD19 of MEC-1 cells (human (MEC-1 B-CLL cell line)) (UniProt P15391)", "T2 sequence": "T1 sequence", "assay": "pull-down, anti-CD19 immunoblot", "conditions": "400 nM aptamer on MEC-1 cells, then lysis; 2'-fluoro pyrimidines; pull-down lysis: 10 mM Tris-HCl pH 7.5, 200 mM NaCl, 5 mM EDTA, 0.1% Triton X-100; protein on the cell surface; label: 3' biotin (BioBB)"}}, "note": "For at least one entry, the source does not settle the construct or the ends of the probe. Where cells or extracts were used, other partners may take part. A negative result means that nothing was seen under these conditions.", "data": [{"sequence": "GGGAGACAAGAAUAAACGCUCAAUGAUAGACAUUCGGUGCUCUCUUUCAUUGACCGUUCACCUGUUGUUCGACAGGAGGCUCACAACAGGC [B88]", "values": [{"measurement": "binding result", "setting": "[1]", "value": "binds"}]}, {"sequence": "UUCGUACCGGGUAGGUUGGCUUGCACAUAGAACGUGUCA [Ctrl Apt (Biotin)]", "values": [{"measurement": "binding result", "setting": "[2]", "value": "no binding"}]}, {"sequence": "UGAGCCCUGUUCGACAGGAGGCUCA [B85.T2 (Biotin)]", "values": [{"measurement": "binding result", "setting": "[2]", "value": "binds"}]}, {"sequence": "GGGAGACAAGAAUAAACGCUCAACGUUGACAACAAAUGACGAUCGUCAACAUGAUGCUUGAGCCCUGUUCGACAGGAGGCUCACAACAGGC [B85]", "values": [{"measurement": "binding result", "setting": "[1]", "value": "binds"}]}, {"sequence": "GGGAGACAAGAAUAAACGCUCAACGUGCAACGCACAAAUUCUUGAUCAUCUCAAUGAUGUGUGCUUUCGACAGGAGGCUCACAACAGGC [B97]", "values": [{"measurement": "binding result", "setting": "[1]", "value": "no binding"}]}]}
